The other results are listed elsewhere or left out.

This experiment addresses T1, OsSMF1 (Oryza sativa, UniProt Q6ZLB0 1-436).
T1 sequence: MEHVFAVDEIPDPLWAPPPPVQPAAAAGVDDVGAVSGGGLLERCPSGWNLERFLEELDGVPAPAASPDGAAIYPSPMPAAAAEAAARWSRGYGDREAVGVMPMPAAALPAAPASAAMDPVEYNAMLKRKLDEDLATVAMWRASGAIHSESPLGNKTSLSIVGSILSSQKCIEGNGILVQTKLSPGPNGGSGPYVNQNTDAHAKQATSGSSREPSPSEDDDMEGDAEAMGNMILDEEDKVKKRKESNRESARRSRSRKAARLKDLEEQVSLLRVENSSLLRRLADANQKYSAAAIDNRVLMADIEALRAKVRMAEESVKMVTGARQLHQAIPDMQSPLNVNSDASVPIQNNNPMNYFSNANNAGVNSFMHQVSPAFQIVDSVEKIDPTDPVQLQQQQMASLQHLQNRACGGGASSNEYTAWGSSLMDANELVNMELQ
The experiment is described as follows: protein-binding microarray (RPBM); PBS, 2% BSA, 51.3 ng/ul salmon testes DNA, 50 uM zinc acetate, 200 nM TF, 25 C, 1 h; high values mean tight binding. Particulars: protein: recombinant; tags: N-terminal polyhistidine and DsRed monomer fusion (pET32a); chain copies: 2; label: CyDye5-dUTP incorporated in the synthesized complementary strand; 3' TTTTT single-stranded linker to array surface; dsDNA, one strand shown. The procedure, abridged:
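Binding signal here means per-feature fluorescence intensity in arbitrary units. The values were read on an Axon 4000B scanner after a custom Agilent array, double-stranded by primer extension with Cy5-dUTP, was incubated with 200 nM protein at 25 °C for 1 h in PBS with 2% BSA, salmon testes DNA and 50 µM zinc acetate, then washed. The proteins were transcription factors with an N-terminal polyhistidine tag and DsRed, expressed in E. coli BL21-CodonPlus and purified on Ni–NTA.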
Turning to “ATAGGTTCTTTTATCAGTGTCACTGACACTTACATCGATGCGGAGTCACCTAGTGCAG”, the binding signal is 4550 fluorescence intensity (a.u.).
As for “AGAGAACTCAAGAAGCAACTGGTCCAAGTCAGCCTTCTTGCGGAGTCACCTAGTGCAG”, the binding signal is 9350 fluorescence intensity (a.u.).
For the sequence “TTTTATATTCCCAATTAGAGTTGTAAGAAAATTATATGGCCGGAGTCACCTAGTGCAG”, the binding signal is 3800 fluorescence intensity (a.u.).
Regarding “GTGGGCGCGTCCACGGCCCACACTAGTCTACCACTACTGTCGGAGTCACCTAGTGCAG”, the binding signal was 3810 fluorescence intensity (a.u.).
As to “CCGACGCGTGGCCACAACGTGTCGTCGACCTCGGTTTCCCCGGAGTCACCTAGTGCAG”, the binding signal was 4420 fluorescence intensity (a.u.).
On to “TAGTTTCCGAGGGAGGGAGAGAGAGACAGCGTGGTATGGACGGAGTCACCTAGTGCAG”, for which the binding signal was 4680 fluorescence intensity (a.u.).
On to “ATATGGTAATACCAAAGTTAAATACTTCTATGGAAATTCCCGGAGTCACCTAGTGCAG”, for which the binding signal was 8700 fluorescence intensity (a.u.).
On to “AATTTCATGTCATCGTGCACGTGGCGTGCCACGTAGGCAACGGAGTCACCTAGTGCAG”, for which the binding signal was 36100 fluorescence intensity (a.u.).
Consider “CCAACTACTCCTCCACCTCTTACCTGACATGTAATAAGCGCGGAGTCACCTAGTGCAG”, for which the binding signal was 3750 fluorescence intensity (a.u.).
“CACGCCACCCCACCGCGCCGCGCGCGCGACGATAGGTCGACGGAGTCACCTAGTGCAG”: the binding signal was 6300 fluorescence intensity (a.u.).
The result for “GATTCTACTGCCCCGTTGACTAATTGTCTTCGTCAGGATCCGGAGTCACCTAGTGCAG” reads 4160 fluorescence intensity (a.u.); that for “TGATTTGATGACTAGGTGGCACGTAGGCGCCAAGTCAGCACGGAGTCACCTAGTGCAG”, 22500 fluorescence intensity (a.u.).
Regarding “CATAATTATGTGTGTGGTCATCATTGAGAAATGGCTTGTCCGGAGTCACCTAGTGCAG”, the binding signal is 5500 fluorescence intensity (a.u.).
“GCGCAGTTCCTCGCCAACACCATGTCGCCGCTGCTCGCCACGGAGTCACCTAGTGCAG”: the binding signal was 3140 fluorescence intensity (a.u.).
“TTCTTTTCTTCTTTGAAACGGACCGTCTTTGTATTTTCGGCGGAGTCACCTAGTGCAG”: the binding signal was 28900 fluorescence intensity (a.u.).
As for “TAGTTAGAATCCTAAGATATGCTGACTAAGTATATACTCTCGGAGTCACCTAGTGCAG”, the figure is 6760 fluorescence intensity (a.u.); as for “GGCGTGGGTTCGTGCGACGGGACCTCGATTCGTCCATCCACGGAGTCACCTAGTGCAG”, 5150 fluorescence intensity (a.u.).
As for “TGCTCCAAAAGCATAAGAAATGTGTCATGGCTGAGTCATGCGGAGTCACCTAGTGCAG”, the figure is 12000 fluorescence intensity (a.u.); as for “GTTATCTCTGATTGCAACATCTTGCCGTGTCCACCGCTGTCGGAGTCACCTAGTGCAG”, 4010 fluorescence intensity (a.u.); as for “CTGTTGTTCGACGCTTGGAGCTCCTCGTGCTCACGTTTCACGGAGTCACCTAGTGCAG”, 3460 fluorescence intensity (a.u.).
For “GTGCACACGCATCGTGGGAGTCGCCCCGTCCACGTCACCCCGGAGTCACCTAGTGCAG”, the binding signal was 31600 fluorescence intensity (a.u.).
On to “TCTTCCACCAGCGCCTCCCTTACACGCTTCACTGACAGTGCGGAGTCACCTAGTGCAG”, for which the binding signal is 3230 fluorescence intensity (a.u.).
As to “GATTCACCGGCGAAATGACGTGACTGTTTCACCTAGGATGCGGAGTCACCTAGTGCAG”, the binding signal is 6080 fluorescence intensity (a.u.).
Take “CTCGCTGCTTCGCCCGCCACGTCACCCTCCTCCTCCTCCCCGGAGTCACCTAGTGCAG”: the binding signal was 62000 fluorescence intensity (a.u.).
The result for “CACACACACGCGTAGCACTAGTACTCTCTCTCTCTCTCTGCGGAGTCACCTAGTGCAG” reads 3220 fluorescence intensity (a.u.); that for “CAAGTGATTTTGCTTACGGGGCCCGATGACCCATCAAGTTCGGAGTCACCTAGTGCAG”, 3360 fluorescence intensity (a.u.); that for “CCAACCATTCACACCTCCCTCTGGTTAACTTAGTTATTGTCGGAGTCACCTAGTGCAG”, 3140 fluorescence intensity (a.u.).
The result for “TAACGATTTGCCACGCTCTGTCAATGACACGTGGGCCCTCCGGAGTCACCTAGTGCAG” reads 17000 fluorescence intensity (a.u.); that for “TGCACCGGTGCAAGTGTGGGAGGGGTGTTGTACGTCGCTACGGAGTCACCTAGTGCAG”, 3540 fluorescence intensity (a.u.); that for “ACATGTCGATGAGTAGATTTCCACAAGTCTAATAAAAGACCGGAGTCACCTAGTGCAG”, 33400 fluorescence intensity (a.u.).
Regarding “TTCTGCGAATTTCCTCTGACATGGAGTAATACACCTACTTCGGAGTCACCTAGTGCAG”, the binding signal was 3480 fluorescence intensity (a.u.).
As for “AACCGTTAAGCGAAAGTGACGTGGGAATGACGTCGCAGGCCGGAGTCACCTAGTGCAG”, the figure is 15500 fluorescence intensity (a.u.); as for “GCCGCACGCGTGCCGTCGGTGCTCAGCGAGCTGACGGAGCCGGAGTCACCTAGTGCAG”, 3820 fluorescence intensity (a.u.); as for “TTGCTGGTGGTATGAGGAATTTGTTGTCGACACAATCGTTCGGAGTCACCTAGTGCAG”, 3430 fluorescence intensity (a.u.).
For the sequence “CACTATAACTGCCATGCCACCTGTGCATATTATGTTGTCGCGGAGTCACCTAGTGCAG”, the binding signal was 5710 fluorescence intensity (a.u.).
Turning to “ACCAAACCAATCCCCTGCGTCCACGTGTACATCTTAGTGCCGGAGTCACCTAGTGCAG”, the binding signal is 12800 fluorescence intensity (a.u.).
For the sequence “CCCTTTCCCCGCCGCCGCCATCACGTGGTCCTTGAGGAACCGGAGTCACCTAGTGCAG”, the binding signal was 3170 fluorescence intensity (a.u.).
As to “AACAAGGCCGAGCTCTGCTCGCGTGGCATCTAACGTGCTCCGGAGTCACCTAGTGCAG”, the binding signal was 6350 fluorescence intensity (a.u.).
The result for “AAATACTACTAGTACAAGATAATTGAGCAAAATAAATACCCGGAGTCACCTAGTGCAG” reads 37000 fluorescence intensity (a.u.); that for “TCAGGGCATTCCTAACCCAATGACTAGGATGGTGTCCATACGGAGTCACCTAGTGCAG”, 6580 fluorescence intensity (a.u.); that for “GAGATCGTTATCCTTTACATGTCATTTGTTAGTTGGCATTCGGAGTCACCTAGTGCAG”, 5250 fluorescence intensity (a.u.).
Turning to “ATTGGAGCCTGACCTGAGTCACGTTGGATCCTGAACCTGACGGAGTCACCTAGTGCAG”, the binding signal is 4500 fluorescence intensity (a.u.).

The values are drawn from article PMC7819943, “Rice protein-binding microarrays: a tool to detect cis-acting elements near promoter regions in rice”.
